Reference: US20240209371A1, “COMPOSITIONS AND METHODS FOR TREATING CANCER” (Dana-Farber Cancer Institute, Inc., priority 2021, published 2024)
For at least one compound, name, drawing or mass did not settle the structure.

Key:
[1] = tested on: KRAS Q61L H650 lung cell line; assay: Cell viability assay, H650; format: cell-based; settings: H650, trametinib
[2] = tested on: pEGFR, pERK and pAKT signals in H650; assay: Western blot analysis of signaling in H650; format: cell-based

Structure (SMILES): CC(=O)Nc1cccc(-n2c(=O)n(C3CC3)c(=O)c3c(Nc4ccc(I)cc4F)n(C)c(=O)c(C)c32)c1 [trametinib]
- sensitivity of H650 to MEK inhibitor [1]: highly resistant
- signaling after treatment [2]: pEGFR reactivation and sustained pAKT signals
